These are yes or no findings as the source states them, for the method shown. In cells and extracts the contact can be indirect. These calls come from enrichment with a bait or labelling near it, and not all partners need be listed. For some of these results: A no says only that the protein was not detected with the bait.
B1: HOOK2 (protein, UniProt Q96ED9 1-719)
chain: MSVDKAELCGSLLTWLQTFHVPSPCASPQDLSSGLAVAYVLNQIDPSWFNEAWLQGISEDPGPNWKLKVSNLKMVLRSLVEYSQDVLAHPVSEEHLPDVSLIGEFSDPAELGKLLQLVLGCAISCEKKQDHIQRIMTLEESVQHVVMEAIQELMTKDTPDSLSPETYGNFDSQSRRYYFLSEEAEEGDELQQRCLDLERQLMLLSEEKQSLAQENAGLRERMGRPEGEGTPGLTAKKLLLLQSQLEQLQEENFRLESGREDERLRCAELEREVAELQHRNQALTSLAQEAQALKDEMDELRQSSERAGQLEATLTSCRRRLGELRELRRQVRQLEERNAGHAERTRQLEDELRRAGSLRAQLEAQRRQVQELQGQRQEEAMKAEKWLFECRNLEEKYESVTKEKERLLAERDSLREANEELRCAQLQPRGLTQADPSLDPTSTPVDNLAAEILPAELRETLLRLQLENKRLCRQEAADRERQEELQRHLEDANRARHGLETQHRLNQQQLSELRAQVEDLQKALQEQGGKTEDAISILLKRKLEEHLQKLHEADLELQRKREYIEELEPPTDSSTARRIEELQHNLQKKDADLRAMEERYRRYVDKARMVMQTMEPKQRPAAGAPPELHSLRTQLRERDVRIRHLEMDFEKSRSQREQEEKLLISAWYNMGMALQQRAGEERAPAHAQSFLAQQRLATNSRRGPLGRLASLNLRPTDKH
B2: ARH (PA-JEB/β4 keratinocytes) (protein, UniProt Q5SW96 1-308)
chain: MDALKSAGRALIRSPSLAKQSWGGGGRHRKLPENWTDTRETLLEGMLFSLKYLGMTLVEQPKGEELSAAAIKRIVATAKASGKKLQKVTLKVSPRGIILTDNLTNQLIENVSIYRISYCTADKMHDKVFAYIAQSQHNQSLECHAFLCTKRKMAQAVTLTVAQAFKVAFEFWQVSKEEKEKRDKASQEGGDVLGARQDCTPSLKSLVATGNLLDLEETAKAPLSTVSANTTNMDEVPRPQALSGSSVVWELDDGLDEAFSRLAQSRTNPQVLDTGLTAQDMHYAQCLSPVDWDKPDSSGTEQDDLFSF
B3: Numb (PA-JEB/β4 keratinocytes) (protein, UniProt P49757 1-651)
chain: MNKLRQSFRRKKDVYVPEASRPHQWQTDEEGVRTGKCSFPVKYLGHVEVDESRGMHICEDAVKRLKAERKFFKGFFGKTGKKAVKAVLWVSADGLRVVDEKTKDLIVDQTIEKVSFCAPDRNFDRAFSYICRDGTTRRWICHCFMAVKDTGERLSHAVGCAFAACLERKQKREKECGVTATFDASRTTFTREGSFRVTTATEQAEREEIMKQMQDAKKAETDKIVVGSSVAPGNTAPSPSSPTSPTSDATTSLEMNNPHAIPRRHAPIEQLARQGSFRGFPALSQKMSPFKRQLSLRINELPSTMQRKTDFPIKNAVPEVEGEAESISSLCSQITNAFSTPEDPFSSAPMTKPVTVVAPQSPTFQANGTDSAFHVLAKPAHTALAPVAMPVRETNPWAHAPDAANKEIAATCSGTEWGQSSGAASPGLFQAGHRRTPSEADRWLEEVSKSVRAQQPQASAAPLQPVLQPPPPTAISQPASPFQGNAFLTSQPVPVGVVPALQPAFVPAQSYPVANGMPYPAPNVPVVGITPSQMVANVFGTAGHPQAAHPHQSPSLVRQQTFPHYEASSATTSPFFKPPAQHLNGSAAFNGVDDGRLASADRHTEVPTGTCPVDPFEAQWAALENKSKQRTNPSPTNPFSSDLQKTFEIEL

Chains of the proteins cited; added tags and fusions are not shown. Residues count along the entry.
UniProt P18084, residues 24-799: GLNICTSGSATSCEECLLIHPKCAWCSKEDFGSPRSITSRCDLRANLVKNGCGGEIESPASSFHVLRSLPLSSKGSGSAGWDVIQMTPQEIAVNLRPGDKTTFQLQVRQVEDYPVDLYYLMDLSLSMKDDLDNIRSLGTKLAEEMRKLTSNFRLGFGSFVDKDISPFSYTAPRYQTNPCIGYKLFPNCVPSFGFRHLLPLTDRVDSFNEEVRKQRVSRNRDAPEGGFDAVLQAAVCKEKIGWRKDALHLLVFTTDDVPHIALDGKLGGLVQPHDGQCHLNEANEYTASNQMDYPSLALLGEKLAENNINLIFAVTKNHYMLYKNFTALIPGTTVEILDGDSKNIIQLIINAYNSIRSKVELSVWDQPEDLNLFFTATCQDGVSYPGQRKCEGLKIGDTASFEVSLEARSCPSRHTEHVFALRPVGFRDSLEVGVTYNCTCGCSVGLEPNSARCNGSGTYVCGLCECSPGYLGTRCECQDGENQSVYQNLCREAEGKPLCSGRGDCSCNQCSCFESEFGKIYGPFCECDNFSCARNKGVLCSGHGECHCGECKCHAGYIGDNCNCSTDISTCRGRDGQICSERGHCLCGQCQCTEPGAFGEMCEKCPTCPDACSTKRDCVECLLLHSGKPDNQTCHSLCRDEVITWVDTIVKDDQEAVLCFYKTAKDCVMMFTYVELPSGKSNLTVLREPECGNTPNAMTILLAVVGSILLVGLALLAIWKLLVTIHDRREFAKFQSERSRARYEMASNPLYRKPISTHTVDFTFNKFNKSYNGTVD
UniProt O96013: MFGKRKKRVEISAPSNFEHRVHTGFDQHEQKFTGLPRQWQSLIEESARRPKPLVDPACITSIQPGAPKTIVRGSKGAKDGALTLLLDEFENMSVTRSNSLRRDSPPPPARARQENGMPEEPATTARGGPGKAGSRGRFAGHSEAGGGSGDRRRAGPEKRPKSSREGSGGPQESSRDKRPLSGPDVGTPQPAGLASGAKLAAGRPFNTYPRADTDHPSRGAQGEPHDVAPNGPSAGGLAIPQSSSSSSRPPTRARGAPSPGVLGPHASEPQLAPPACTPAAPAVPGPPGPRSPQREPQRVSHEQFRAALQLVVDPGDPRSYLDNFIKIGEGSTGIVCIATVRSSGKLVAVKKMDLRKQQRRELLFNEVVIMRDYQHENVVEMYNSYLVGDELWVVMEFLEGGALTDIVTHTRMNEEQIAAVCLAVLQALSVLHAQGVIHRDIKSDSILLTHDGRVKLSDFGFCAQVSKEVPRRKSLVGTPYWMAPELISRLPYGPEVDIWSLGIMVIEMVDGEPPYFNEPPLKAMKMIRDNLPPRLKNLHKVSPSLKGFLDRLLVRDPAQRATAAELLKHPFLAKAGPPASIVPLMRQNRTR
UniProt Q9Y4B5: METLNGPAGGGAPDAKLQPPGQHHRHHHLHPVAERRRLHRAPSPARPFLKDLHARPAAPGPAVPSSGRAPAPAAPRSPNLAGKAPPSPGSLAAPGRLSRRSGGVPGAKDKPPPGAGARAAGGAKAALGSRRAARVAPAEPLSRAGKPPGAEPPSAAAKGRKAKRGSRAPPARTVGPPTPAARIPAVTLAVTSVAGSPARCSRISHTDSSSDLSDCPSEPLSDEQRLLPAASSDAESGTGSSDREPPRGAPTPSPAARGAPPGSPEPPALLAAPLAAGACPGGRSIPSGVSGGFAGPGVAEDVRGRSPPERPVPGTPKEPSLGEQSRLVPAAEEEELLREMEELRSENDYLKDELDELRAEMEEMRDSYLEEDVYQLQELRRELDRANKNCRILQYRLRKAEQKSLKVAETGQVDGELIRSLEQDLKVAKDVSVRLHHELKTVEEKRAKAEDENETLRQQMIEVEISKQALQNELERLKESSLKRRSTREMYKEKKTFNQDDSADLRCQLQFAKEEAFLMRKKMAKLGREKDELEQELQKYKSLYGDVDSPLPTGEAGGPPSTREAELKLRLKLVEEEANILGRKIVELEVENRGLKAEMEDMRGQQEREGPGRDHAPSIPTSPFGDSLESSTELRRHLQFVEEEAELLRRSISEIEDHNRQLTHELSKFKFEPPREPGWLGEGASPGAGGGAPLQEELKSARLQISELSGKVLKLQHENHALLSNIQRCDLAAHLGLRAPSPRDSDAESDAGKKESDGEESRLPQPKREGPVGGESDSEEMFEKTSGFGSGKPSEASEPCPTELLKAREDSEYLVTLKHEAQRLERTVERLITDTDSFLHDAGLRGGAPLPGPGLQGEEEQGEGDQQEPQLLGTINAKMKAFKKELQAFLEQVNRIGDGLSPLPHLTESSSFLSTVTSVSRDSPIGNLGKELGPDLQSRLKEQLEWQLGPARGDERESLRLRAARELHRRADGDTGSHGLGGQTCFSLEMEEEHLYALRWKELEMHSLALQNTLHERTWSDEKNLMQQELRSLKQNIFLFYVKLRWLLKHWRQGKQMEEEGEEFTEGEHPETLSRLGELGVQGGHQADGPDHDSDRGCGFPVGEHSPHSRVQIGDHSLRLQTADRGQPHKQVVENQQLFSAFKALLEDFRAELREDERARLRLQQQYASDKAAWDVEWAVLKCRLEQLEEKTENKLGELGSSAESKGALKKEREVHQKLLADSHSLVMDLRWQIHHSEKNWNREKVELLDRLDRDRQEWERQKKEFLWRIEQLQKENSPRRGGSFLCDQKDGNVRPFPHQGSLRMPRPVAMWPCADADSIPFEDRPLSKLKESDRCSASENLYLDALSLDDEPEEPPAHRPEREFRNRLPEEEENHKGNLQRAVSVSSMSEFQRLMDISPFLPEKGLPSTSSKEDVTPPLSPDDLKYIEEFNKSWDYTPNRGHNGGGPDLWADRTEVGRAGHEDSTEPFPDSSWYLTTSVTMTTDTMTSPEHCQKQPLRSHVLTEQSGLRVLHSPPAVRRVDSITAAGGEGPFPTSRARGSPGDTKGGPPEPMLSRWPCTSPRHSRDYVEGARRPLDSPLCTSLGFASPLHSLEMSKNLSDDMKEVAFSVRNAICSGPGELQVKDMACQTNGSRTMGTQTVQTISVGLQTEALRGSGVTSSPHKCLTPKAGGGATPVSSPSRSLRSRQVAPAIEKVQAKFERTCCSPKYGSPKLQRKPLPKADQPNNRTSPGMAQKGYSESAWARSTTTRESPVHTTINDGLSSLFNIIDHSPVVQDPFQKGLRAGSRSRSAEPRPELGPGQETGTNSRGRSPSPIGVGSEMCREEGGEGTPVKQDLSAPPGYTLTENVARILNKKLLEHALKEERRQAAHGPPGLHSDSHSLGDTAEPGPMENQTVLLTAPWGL
UniProt Q15691: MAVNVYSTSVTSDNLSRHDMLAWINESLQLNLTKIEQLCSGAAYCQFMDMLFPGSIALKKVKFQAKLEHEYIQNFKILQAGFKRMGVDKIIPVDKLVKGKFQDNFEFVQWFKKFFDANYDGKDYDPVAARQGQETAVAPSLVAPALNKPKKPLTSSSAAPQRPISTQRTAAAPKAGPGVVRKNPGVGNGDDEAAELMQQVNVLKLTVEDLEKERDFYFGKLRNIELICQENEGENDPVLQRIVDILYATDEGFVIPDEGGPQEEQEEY
UniProt O75914: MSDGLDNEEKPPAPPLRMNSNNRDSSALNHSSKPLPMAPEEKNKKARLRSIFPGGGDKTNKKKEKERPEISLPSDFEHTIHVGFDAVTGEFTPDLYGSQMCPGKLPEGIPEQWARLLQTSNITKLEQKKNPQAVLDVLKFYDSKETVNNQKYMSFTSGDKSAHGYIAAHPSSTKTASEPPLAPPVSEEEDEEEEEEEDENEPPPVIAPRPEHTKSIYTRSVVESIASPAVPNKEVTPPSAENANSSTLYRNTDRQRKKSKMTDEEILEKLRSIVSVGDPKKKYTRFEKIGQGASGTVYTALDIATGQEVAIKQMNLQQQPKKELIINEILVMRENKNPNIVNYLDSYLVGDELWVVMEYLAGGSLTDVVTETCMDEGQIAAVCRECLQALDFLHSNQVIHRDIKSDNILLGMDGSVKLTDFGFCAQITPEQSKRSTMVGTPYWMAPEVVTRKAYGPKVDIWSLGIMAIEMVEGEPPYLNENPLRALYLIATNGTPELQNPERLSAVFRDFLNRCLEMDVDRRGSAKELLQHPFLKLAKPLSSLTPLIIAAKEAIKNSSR
UniProt Q13177: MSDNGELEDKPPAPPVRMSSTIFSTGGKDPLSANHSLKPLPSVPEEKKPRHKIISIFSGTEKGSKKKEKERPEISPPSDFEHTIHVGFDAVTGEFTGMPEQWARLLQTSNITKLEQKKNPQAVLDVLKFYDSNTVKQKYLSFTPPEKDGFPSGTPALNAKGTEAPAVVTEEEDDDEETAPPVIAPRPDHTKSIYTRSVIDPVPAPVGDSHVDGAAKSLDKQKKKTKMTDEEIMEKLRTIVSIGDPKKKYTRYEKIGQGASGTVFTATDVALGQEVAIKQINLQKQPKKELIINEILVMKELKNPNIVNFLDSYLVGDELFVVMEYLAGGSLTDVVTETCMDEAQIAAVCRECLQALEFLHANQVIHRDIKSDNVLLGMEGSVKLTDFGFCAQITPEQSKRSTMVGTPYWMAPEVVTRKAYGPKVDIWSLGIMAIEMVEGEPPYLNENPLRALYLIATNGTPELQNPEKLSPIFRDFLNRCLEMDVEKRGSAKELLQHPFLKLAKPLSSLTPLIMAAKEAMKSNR
UniProt Q07866: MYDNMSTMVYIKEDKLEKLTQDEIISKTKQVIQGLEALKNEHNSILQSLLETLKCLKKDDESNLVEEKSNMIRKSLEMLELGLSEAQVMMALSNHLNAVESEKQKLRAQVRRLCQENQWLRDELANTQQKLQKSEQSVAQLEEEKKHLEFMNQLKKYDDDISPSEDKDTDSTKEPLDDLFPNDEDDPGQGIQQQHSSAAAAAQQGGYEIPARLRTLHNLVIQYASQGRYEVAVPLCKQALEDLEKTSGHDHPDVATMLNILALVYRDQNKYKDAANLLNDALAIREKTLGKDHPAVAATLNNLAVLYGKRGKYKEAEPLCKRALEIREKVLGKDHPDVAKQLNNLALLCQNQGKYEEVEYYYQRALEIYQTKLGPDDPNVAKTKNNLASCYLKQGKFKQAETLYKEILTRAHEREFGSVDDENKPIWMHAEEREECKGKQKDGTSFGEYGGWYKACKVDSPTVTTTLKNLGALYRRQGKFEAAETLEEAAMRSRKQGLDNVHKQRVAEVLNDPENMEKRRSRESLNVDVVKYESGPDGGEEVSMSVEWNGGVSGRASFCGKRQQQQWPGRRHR
UniProt Q7KZI7: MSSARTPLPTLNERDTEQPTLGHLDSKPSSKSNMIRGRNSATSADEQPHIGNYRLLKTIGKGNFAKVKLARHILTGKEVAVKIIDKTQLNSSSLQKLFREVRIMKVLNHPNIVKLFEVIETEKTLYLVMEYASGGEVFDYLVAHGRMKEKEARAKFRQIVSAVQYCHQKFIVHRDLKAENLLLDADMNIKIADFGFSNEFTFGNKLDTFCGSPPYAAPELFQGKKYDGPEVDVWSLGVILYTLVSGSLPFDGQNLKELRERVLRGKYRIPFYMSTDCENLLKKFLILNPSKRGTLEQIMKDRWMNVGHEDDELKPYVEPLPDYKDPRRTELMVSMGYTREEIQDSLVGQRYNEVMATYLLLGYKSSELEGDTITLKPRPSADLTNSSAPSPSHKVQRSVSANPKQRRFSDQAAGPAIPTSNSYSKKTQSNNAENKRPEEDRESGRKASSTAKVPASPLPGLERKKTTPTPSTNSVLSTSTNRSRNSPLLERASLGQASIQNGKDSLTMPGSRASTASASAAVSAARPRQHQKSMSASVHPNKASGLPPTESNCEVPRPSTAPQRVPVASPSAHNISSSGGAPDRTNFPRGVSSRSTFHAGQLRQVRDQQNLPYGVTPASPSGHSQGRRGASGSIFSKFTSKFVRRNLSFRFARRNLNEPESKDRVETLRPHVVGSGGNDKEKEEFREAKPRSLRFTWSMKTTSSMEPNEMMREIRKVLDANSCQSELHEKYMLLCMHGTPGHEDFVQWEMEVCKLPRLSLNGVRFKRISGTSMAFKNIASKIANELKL
UniProt Q9Y266: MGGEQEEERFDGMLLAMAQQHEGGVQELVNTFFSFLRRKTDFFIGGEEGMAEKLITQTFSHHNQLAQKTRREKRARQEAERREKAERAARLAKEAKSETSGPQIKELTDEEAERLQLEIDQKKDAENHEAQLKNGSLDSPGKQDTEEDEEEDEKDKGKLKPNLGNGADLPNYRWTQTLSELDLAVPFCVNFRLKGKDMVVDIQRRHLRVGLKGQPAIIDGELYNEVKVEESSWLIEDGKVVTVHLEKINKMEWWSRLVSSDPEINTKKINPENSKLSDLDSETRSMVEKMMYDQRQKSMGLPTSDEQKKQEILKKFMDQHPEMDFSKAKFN

Molecular target: integrin β5 (endogenous, keratinocytes) (human (endogenous in PA-JEB/β4 and HaCaT keratinocytes)) (UniProt P18084)
Experiment: affinity purification with mass spectrometry; immunoprecipitation of β5 with rabbit serum 5HK2 (β6 serum 5HK1 as negative control) on Protein A Sepharose from NP40 lysates of PA-JEB/β4 and HaCaT keratinocytes; label-free quantitation, FDR 0.05

binding | Molecule
no binding | p21-activated kinase 4 (PAK4) (from UniProt O96013 1-591) (enzyme)
binds | microtubule crosslinking factor 1 (MTCL1) (from UniProt Q9Y4B5 1-1905)
binds | EB1 (from UniProt Q15691 1-268)
no binding | PAK3 (from UniProt O75914 1-559) (enzyme)
binds | kinesin-1 heavy chain (KIF5B) (from UniProt P33176 1-963)
no binding | PAK6 (from UniProt Q9NQU5 1-681) (enzyme)
no binding | PAK2 (from UniProt Q13177 1-524) (enzyme)
binds | kinesin-1 light chain (KLC1) (from UniProt Q07866 1-573)
binds | microtubule affinity-regulating kinase 2 (MARK2) (from UniProt Q7KZI7 1-788) (enzyme)
binds | NUDC (from UniProt Q9Y266 1-331)
binds | B1

Molecular target: β5–BirA* (UniProt P18084)
Experiment: proximity labelling; BioID: BirA* fusions expressed in PA-JEB/β4 keratinocytes, 50 µM biotin for 24 h, RIPA lysis, biotinylated proteins isolated on Streptavidin Sepharose, western blot

binding | Molecule
binds | B2
binds | B3

Reference: PMC9234671, “Molecular determinants of αVβ5 localization in flat clathrin lattices – role of αVβ5 in cell adhesion and proliferation” (Journal of Cell Science, 2022)
